Results taken from article PMC4747173.
These are yes or no findings as the source states them, for the method shown. In cells and extracts the contact can be indirect. Here binding means that the protein was enriched with, or labelled near, the bait; the list need not be complete. For part of these data: Where a sequence is shown, tags or fusion partners need not be part of it.

Protein sequences, listed by entry. Tags and fused reporters are not part of them.
UniProt O14777: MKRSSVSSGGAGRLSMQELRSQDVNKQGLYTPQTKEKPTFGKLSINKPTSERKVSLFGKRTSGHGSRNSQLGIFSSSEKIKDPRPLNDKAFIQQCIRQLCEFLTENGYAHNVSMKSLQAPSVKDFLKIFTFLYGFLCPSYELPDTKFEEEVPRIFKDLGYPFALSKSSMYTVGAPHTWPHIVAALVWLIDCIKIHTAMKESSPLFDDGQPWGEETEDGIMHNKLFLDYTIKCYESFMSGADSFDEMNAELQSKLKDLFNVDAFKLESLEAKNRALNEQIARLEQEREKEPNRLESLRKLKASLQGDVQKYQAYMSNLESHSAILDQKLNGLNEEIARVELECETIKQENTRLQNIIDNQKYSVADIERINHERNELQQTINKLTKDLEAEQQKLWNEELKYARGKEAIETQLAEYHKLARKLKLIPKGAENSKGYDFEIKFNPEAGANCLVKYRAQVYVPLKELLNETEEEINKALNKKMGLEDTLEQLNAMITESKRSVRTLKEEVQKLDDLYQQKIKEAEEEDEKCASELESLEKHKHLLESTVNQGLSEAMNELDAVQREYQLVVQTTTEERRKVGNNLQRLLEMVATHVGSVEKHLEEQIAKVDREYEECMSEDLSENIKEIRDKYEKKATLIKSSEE

T1: FLAG-HA-ASPP1 (stably expressed in HeLa cells) (UniProt Q96KQ4)
T1 sequence: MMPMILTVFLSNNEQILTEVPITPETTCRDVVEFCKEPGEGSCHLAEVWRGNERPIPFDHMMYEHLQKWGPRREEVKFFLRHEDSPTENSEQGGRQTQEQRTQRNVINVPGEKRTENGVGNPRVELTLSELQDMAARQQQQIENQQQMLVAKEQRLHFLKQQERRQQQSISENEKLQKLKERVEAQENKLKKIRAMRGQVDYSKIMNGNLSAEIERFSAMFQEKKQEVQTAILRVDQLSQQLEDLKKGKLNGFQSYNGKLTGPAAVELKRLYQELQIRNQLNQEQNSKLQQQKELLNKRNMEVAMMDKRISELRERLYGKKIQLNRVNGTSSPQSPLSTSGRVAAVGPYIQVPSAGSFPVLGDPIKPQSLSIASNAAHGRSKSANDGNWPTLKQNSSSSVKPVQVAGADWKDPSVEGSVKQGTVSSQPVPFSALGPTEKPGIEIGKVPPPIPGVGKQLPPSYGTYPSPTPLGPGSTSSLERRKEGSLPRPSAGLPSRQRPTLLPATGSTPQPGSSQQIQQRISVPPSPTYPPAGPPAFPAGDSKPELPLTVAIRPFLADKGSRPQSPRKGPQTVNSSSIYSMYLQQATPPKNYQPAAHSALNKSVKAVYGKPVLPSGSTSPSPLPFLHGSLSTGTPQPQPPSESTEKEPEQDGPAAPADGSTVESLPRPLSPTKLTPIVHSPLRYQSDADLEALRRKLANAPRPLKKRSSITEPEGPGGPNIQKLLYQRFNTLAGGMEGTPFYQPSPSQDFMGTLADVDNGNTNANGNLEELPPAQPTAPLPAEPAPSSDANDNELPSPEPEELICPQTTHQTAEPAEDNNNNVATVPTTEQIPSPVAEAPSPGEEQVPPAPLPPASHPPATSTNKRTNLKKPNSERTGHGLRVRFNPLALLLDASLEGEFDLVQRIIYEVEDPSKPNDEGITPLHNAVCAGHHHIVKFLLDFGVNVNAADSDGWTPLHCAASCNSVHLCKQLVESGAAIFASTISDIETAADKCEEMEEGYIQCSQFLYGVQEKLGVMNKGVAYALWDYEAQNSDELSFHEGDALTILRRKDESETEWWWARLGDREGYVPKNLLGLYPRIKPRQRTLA

T2: FLAG-HA-ASPP2 (stably expressed in HeLa cells) (UniProt Q13625)
T2 sequence: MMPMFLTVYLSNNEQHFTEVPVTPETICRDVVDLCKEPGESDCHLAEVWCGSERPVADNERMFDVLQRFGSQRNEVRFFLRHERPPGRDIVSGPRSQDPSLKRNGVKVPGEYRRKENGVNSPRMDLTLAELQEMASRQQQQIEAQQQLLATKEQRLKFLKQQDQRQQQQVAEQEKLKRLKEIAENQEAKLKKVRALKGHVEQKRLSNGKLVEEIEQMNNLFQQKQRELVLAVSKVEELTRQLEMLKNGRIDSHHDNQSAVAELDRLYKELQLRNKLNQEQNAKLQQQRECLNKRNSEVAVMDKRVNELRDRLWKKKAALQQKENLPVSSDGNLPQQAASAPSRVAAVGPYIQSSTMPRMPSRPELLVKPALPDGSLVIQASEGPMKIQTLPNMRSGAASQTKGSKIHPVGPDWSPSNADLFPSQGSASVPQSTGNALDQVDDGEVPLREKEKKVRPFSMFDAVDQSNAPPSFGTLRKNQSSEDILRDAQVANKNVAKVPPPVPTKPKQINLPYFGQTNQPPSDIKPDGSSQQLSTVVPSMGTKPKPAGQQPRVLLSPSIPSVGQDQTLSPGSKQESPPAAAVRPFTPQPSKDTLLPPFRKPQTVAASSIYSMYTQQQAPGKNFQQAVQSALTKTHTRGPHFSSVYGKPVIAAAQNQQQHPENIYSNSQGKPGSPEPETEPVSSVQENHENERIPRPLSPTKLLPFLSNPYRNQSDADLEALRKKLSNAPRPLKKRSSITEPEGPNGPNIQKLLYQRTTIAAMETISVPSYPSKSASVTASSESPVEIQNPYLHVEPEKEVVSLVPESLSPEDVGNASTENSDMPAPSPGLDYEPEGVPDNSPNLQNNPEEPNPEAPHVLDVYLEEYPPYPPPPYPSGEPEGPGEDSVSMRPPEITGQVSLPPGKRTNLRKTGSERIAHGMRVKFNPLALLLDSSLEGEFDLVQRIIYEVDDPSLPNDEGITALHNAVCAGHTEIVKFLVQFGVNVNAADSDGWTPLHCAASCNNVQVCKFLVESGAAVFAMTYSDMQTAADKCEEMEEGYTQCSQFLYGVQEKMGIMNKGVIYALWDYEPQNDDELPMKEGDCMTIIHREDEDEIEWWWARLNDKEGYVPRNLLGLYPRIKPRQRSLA


Assays:
[1] = target: T1, FLAG-HA-ASPP1 (stably expressed in HeLa cells); test: affinity purification with mass spectrometry; tandem affinity purification (anti-FLAG M2 agarose, FLAG peptide elution, then anti-HA agarose, HA peptide elution) from HeLa cells stably expressing FH-ASPP1 or FH-ASPP2; lysis in BC100 buffer (20 mM Tris-Cl pH 7.9, 100 mM NaCl, 0.2 mM EDTA, 20% glycerol) with 0.2% Triton X-100; proteins found in MOCK HeLa cells omitted
[2] = target: T2, FLAG-HA-ASPP2 (stably expressed in HeLa cells); test: as above
[3] = target: FLAG-HA-Hec1 (stably expressed in HeLa cells) (UniProt O14777); test: affinity purification with mass spectrometry; tandem affinity purification of the Hec1-containing complex from HeLa cells stably expressing FLAG-HA (FH)-Hec1; SDS-PAGE, mass spectrometry

| binding [1] | binding [2] | binding [3] | Binder |
| --- | --- | --- | --- |
| binds | binds |  | RASSF7 (endogenous) (protein, UniProt Q02833 1-373) MLLGLAAMELKVWVDGIQRVVCGVSEQTTCQEVVIALAQAIGQTGRFVLVQRLREKERQLLPQECPVGAQATCGQFASDVQFVLRRTGPSLAGRPSSDSCPPPERCLIRASLPVKPRAALGCEPRKTLTPEPAPSLSRPGPAAPVTPTPGCCTDLRGLELRVQRNAEELGHEAFWEQELRREQAREREGQARLQALSAATAEHAARLQALDAQARALEAELQLAAEAPGPPSPMASATERLHQDLAVQERQSAEVQGSLALVSRALEAAERALQAQAQELEELNRELRQCNLQQFIQQTGAALPPPPRPDRGPPGTQGPLPPAREESLLGAPSESHAGAQPRPRGGPHDAELLEVAAAPAPEWCPLAAQPQAL |
|  |  | binds | PPM1B (endogenous) (enzyme, UniProt O75688 1-479) MGAFLDKPKTEKHNAHGAGNGLRYGLSSMQGWRVEMEDAHTAVVGIPHGLEDWSFFAVYDGHAGSRVANYCSTHLLEHITTNEDFRAAGKSGSALELSVENVKNGIRTGFLKIDEYMRNFSDLRNGMDRSGSTAVGVMISPKHIYFINCGDSRAVLYRNGQVCFSTQDHKPCNPREKERIQNAGGSVMIQRVNGSLAVSRALGDYDYKCVDGKGPTEQLVSPEPEVYEILRAEEDEFIILACDGIWDVMSNEELCEYVKSRLEVSDDLENVCNWVVDTCLHKGSRDNMSIVLVCFSNAPKVSDEAVKKDSELDKHLESRVEEIMEKSGEEGMPDLAHVMRILSAENIPNLPPGGGLAGKRNVIEAVYSRLNPHRESDGASDEAEESGSQGKLVEALRQMRINHRGNYRQLLEEMLTSYRLAKVEGEESPAEPAATATSSNSDAGNPVTMQESHTESESGLAELDSSNEDAGTKMSGEKI |
